Columns and labels:
[1] = Example 2: soak impregnation, uptake and dimensional swelling of wood pieces; parameters: species or system Pinus ponderosa; details: for Uptake: Pinus ponderosa 38.6x38.6x72 mm submerged two to four days; for Radial Swelling / Tangential Swelling / Volumetric Swelling: after soak and two to four days in sealed containers; for soaking time to achieve the uptakes of Table 1: submerged wood pieces
[2] = Example 1: dip impregnation of wood and solvent loss by evaporation (odour); parameters: species or system Pinus radiata

Row | SMILES | Uptake [1] [L/m^3] | Radial Swelling [1] [%] | Tangential Swelling [1] [%] | Volumetric Swelling [1] [%] | soaking time to achieve the uptakes of Table 1 [1] | Uptake ([2]; Pinus radiata 90x45x360 mm dipped for two minutes, average of two pieces) [L/m^3] | average uptake ([2]; Pinus radiata dipped for two minutes) [g] | odour of solvent in wood ([2]; after a further 24 hours exposure) | odour of solvent in wood ([2]; after two days of evaporation in sheltered outside environment)
1 | CCCCOC(C)=O [n-butyl ethanoate] | 130 | 0.2 | 0.7 | 0.9 | – | – | – | – | –
2 | CC(=O)OCCC(C)C [iso-pentyl ethanoate] | 115 | 0.3 | 0.5 | 0.8 | four days | – | – | – | –
3 | CCOC(C)=O [ethyl ethanoate] | 130 | 0.8 | 3.7 | 4.5 | within two days | – | – | – | –
4 | CCCOC(C)=O [n-propyl ethanoate] | 128 | 0.5 | 0.9 | 1.4 | within two days | 36 | 54 | no odour | faint or barely perceptible odour
5 | O [Water, water, reference compound] | 147 | 2.6 | 3.3 | 6.0 | within two days | – | – | – | –

Source: patent US8927063B2, “Compositions for the treatment of timber and other wood substrates” (TimTechChem International Limited, priority 2008, dated 2015)
